These are yes or no findings as the source states them, for the method shown. Binding seen in cells or lysates may run through a third protein. Some entries that bind do so weakly or less than the wild type.
What was measured:
[1] = molecular target: mouse melanocortin 4 receptor fused to EGFP (mouse) (UniProt P56450); assay: FRET or BRET; kinetic BRET in live HEK293 cells cotransfected with β-arrestin-2-nanoluciferase and mouse MC4R-EGFP (1:10); furimazine; cells treated with 10 μM peptide ligand (NDP-α-MSH, Ta1LPs, Pr4LPs, Ar3LPs, GoLPs) in HBSS; read over 35 min at 510/460 nm, vehicle subtracted
[2] = molecular target: human melanocortin 4 receptor with C-terminally fused SmBit (human) (UniProt P32245); assay: split reporter; nanoluciferase complementation in live cells between human MC4R-SmBit and β-arrestin-2-LgBit (cotransfection 1:10 β-arrestin-2:receptor); HBSS, furimazine; read 5 min after adding α-MSH, Pr4LP1 or Ar3LP1

By UniProt entry, the sequences of proteins in these tests, tags left out.
UniProt P56450: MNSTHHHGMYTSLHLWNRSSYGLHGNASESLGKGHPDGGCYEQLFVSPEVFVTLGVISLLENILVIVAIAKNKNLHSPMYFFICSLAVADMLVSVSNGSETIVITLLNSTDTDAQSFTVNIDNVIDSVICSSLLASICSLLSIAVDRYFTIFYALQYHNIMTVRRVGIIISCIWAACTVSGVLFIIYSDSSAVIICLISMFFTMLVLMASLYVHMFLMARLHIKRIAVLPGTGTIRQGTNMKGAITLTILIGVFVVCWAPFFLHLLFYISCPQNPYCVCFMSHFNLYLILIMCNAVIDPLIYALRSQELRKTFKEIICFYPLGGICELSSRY
UniProt P32245: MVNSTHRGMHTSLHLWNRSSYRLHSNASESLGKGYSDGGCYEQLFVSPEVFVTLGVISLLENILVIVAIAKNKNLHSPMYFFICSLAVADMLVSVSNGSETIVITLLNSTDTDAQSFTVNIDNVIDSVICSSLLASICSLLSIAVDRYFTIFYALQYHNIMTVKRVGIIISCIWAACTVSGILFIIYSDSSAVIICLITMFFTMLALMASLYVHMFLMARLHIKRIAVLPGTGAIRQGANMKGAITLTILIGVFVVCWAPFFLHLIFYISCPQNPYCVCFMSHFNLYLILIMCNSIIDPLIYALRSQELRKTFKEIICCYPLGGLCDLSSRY
UniProt P32121: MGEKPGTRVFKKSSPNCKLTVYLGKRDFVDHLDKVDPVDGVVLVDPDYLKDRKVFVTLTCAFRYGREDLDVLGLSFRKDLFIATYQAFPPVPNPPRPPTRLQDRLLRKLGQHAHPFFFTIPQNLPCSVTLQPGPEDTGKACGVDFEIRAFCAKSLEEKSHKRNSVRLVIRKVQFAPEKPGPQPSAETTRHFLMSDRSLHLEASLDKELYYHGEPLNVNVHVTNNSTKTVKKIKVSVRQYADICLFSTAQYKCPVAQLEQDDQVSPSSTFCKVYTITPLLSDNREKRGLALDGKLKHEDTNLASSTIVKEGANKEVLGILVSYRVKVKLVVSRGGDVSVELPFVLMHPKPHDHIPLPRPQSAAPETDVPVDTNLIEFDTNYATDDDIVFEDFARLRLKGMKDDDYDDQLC

Row | binding [1] | binding [2] | Substance
1 | binds |  | β-arrestin-2 fused to nanoluciferase (from UniProt P32121 1-409)
2 |  | binds | β-arrestin-2-LgBit (from UniProt P32121 1-409)

From publication PMC10580383, “Development of Melanocortin 4 Receptor Agonists by Exploiting Animal-Derived Macrocyclic, Disulfide-Rich Peptide Scaffolds” (ACS Pharmacology & Translational Science, 2023)
